Drawing on PMC6739309, this text covers binding for 1 substance.

Sequences of proteins named here, by UniProt entry; tags and fusion partners are left off. Residues count along the entry.
UniProt O00206, residues 24-631: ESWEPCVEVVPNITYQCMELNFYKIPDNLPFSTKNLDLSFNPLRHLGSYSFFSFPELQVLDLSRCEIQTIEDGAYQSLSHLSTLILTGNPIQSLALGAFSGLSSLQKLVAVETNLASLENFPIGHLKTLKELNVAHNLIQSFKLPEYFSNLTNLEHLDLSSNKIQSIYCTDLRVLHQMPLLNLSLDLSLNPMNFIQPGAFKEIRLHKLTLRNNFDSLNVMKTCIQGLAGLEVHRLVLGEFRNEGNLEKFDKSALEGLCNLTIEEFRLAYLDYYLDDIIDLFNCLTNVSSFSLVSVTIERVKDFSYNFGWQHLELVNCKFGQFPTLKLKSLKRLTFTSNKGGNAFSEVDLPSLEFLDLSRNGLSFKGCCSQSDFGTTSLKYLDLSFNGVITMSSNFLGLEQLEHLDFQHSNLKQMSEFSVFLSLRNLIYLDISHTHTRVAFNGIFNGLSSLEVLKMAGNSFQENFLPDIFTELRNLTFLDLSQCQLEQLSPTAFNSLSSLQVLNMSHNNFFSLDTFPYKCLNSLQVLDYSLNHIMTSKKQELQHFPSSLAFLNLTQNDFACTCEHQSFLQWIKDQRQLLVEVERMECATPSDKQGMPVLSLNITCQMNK

The assay addresses T1, recombinant human nicotinate phosphoribosyltransferase (rNAPRT) (human) (UniProt Q6XQN6).
T1 sequence: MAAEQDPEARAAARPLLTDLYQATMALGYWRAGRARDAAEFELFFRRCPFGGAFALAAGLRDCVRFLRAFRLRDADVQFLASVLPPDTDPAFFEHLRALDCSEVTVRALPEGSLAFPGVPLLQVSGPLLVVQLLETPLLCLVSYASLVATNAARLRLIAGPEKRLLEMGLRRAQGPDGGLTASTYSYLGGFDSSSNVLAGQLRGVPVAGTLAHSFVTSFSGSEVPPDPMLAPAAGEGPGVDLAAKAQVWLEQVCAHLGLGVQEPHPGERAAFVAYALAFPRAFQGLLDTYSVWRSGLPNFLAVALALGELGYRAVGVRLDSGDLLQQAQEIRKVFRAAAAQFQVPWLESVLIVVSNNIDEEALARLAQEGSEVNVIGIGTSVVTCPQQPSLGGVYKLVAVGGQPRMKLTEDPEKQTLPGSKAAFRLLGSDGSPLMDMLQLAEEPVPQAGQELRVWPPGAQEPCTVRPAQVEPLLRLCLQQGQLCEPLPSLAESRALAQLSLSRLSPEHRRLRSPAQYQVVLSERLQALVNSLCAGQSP
Description: SPR; anti-NAPRT monoclonal antibody (Proteintech) immobilised on a CMD 2D chip (MP-SPR Navi 210A); TLR4 (1 uM), NAPRT (100 nM) and pre-mixed TLR4/NAPRT (1 uM/100 nM) injected for 210 s at 30 ul/min; 10 mM HEPES, 0.05% Tween, pH 7.5; 25 °C; both purified.

No constants are given. Whether binding was seen depends on the method and setting. Some binding calls cover weakened binding; strength is not graded here.

Take “recombinant extracellular domain of TLR4 (rTLR4) (from UniProt O00206 24-631) (domain or fragment)”: the binding entry is reported as “binds”.
